Measurements published in PubChem BioAssay AID330 (DTP/NCI, 2004).
The list is a part of this screen's results and no random one: it gathers tests that were run many times, whatever their T/C, doses with no T/C, and many T/C values between a quarter and a half above the control. Other doses and runs of a compound stand elsewhere. T/C: endpoint of the treated group in % of that of the vehicle group. Some entries give survivors of the animals treated and no T/C: the source holds a T/C of zero for them, seemingly a mark for toxic or unscored doses. Some doses without a T/C left all or most animals alive at the check, yet need not have been tolerated: the source hardly ever lists a survival T/C far under the control, and the zero likely stands for such cases as well. Survivors were counted at the toxicity check, usually on the fifth day, unless a day is given; later deaths do not show. Schedules are NCI's codes, taken here to give the interval after Q, in days (D) or hours (H), and the number of doses after X. Some doses were run more than once; their values stand side by side, smallest first. Counts like (3×) count equal records among those shown. For survival time, this PubChem deposit counts one and a half times the control or more as active, and values a quarter to a half above the control carry no call in these data; other NCI protocols may use other cut-offs. Some T/C values carry the count of animals alive at the toxicity check (mostly the fifth day); without a count, all were alive then.

System: P388 leukemia ip, CD2F1 mice, survival T/C
Experiment: NCI In Vivo Anticancer Drug Screen. Data for tumor model P388 Leukemia (intraperitoneal) in CD2F1 (CDF1) mice
Conditions: T/C endpoint: median survival time, higher T/C = longer survival
[1] = dose: 6.25 mg/kg/injection, schedule: Q01DX009 (ip), vehicle: saline
[2] = dose: 50.0 mg/kg/injection, schedule: Q01DX009 (ip), vehicle: Klucel (hydroxypropylcellulose) (HPC)
[3] = dose: 100.0 mg/kg/injection, schedule: Q01DX009 (ip), vehicle: Klucel (hydroxypropylcellulose) (HPC)
[4] = dose: 200.0 mg/kg/injection, schedule: Q01DX009 (ip), vehicle: Klucel (hydroxypropylcellulose) (HPC)
[5] = dose: 100.0 mg/kg/injection, schedule: Q04DX002 (ip), vehicle: saline
[6] = dose: 50.0 mg/kg/injection, schedule: Q01DX009 (ip), vehicle: saline with Tween-80
[7] = dose: 200.0 mg/kg/injection, schedule: Q01DX005 (ip), vehicle: Klucel (hydroxypropylcellulose) (HPC)

Structure (SMILES): COC(=O)c1nc(N)nc(C(=O)OC)c1C(=O)c1cc(Cl)ccc1Cl
- survivor count (dose: 240.0 mg/kg/injection, schedule: Q01DX005 (ip), vehicle: saline with Tween-80): 0 of 6

Structure (SMILES): CCC(=O)NCC(=O)O
- survivor count (dose: 12.5 mg/kg/injection, schedule: Q01DX009 (ip), vehicle: saline with Tween-80): 6 of 6
- survivor count (dose: 25.0 mg/kg/injection, schedule: Q01DX009 (ip), vehicle: saline with Tween-80): 6 of 6

Structure (SMILES): CN1CC[N+](C)(Cc2ccc(C[N+]3(C)CC[N+](C)(Cc4ccc(CCl)cc4)CC3)cc2)CC1 (stereo unspecified)
- survivor count (dose: 100.0 mg/kg/injection, schedule: Q04DX003 (ip), vehicle: saline): 2 of 6
- survivor count (dose: 200.0 mg/kg/injection, schedule: Q04DX003 (ip), vehicle: saline): 0 of 6
- survivor count (dose: 400.0 mg/kg/injection, schedule: Q04DX003 (ip), vehicle: saline): 0 of 6

Structure (SMILES): S=P(N1CC1)(N1CC1)N1CC1.[Cl-].[Cl-].[NH2-].[NH2-].[Pt+4]
- T/C (dose: 3.12 mg/kg/injection, schedule: Q01DX009 (ip), vehicle: saline): 126 and 138 % of control
- T/C [1]: 133 and 140 % of control
- survivor count [1]: 4 of 6
- survivor count (dose: 12.5 mg/kg/injection, schedule: Q01DX009 (ip), vehicle: saline): 3 of 6 and 6 of 6 (2×)
- survivor count (dose: 25.0 mg/kg/injection, schedule: Q01DX009 (ip), vehicle: saline): 2 of 6 and 6 of 6 (2×)

Structure (SMILES): CC(=O)NS(=O)(=O)c1ccc(N=NC2C(=O)N(C(=O)c3ccc(Cl)cc3)N=C2C)cc1 (stereo unspecified)
- survivor count (dose: 25.0 mg/kg/injection, schedule: Q01DX001 (ip), vehicle: saline with Tween-80): 6 of 6
- survivor count (dose: 50.0 mg/kg/injection, schedule: Q01DX001 (ip), vehicle: saline with Tween-80): 6 of 6
- survivor count (dose: 100.0 mg/kg/injection, schedule: Q01DX001 (ip), vehicle: saline with Tween-80): 6 of 6
- survivor count (dose: 200.0 mg/kg/injection, schedule: Q01DX001 (ip), vehicle: saline with Tween-80): 6 of 6
- survivor count (dose: 400.0 mg/kg/injection, schedule: Q01DX001 (ip), vehicle: saline with Tween-80): 6 of 6

Structure (SMILES): CCCCc1ccc2nc(C)cc(N/N=C/c3ccc4c(c3)OCO4)c2c1
- survivor count (dose: 100.0 mg/kg/injection, schedule: Q01DX005 (ip), vehicle: Klucel (hydroxypropylcellulose) (HPC)): 6 of 6

Structure (SMILES): CCOc1ccc(N=C([Se])CC)cc1
- survivor count [2]: 0 of 6
- survivor count [3]: 0 of 6
- survivor count [4]: 0 of 6

Structure (SMILES): CCC1=CC2CN3CCc4c([nH]c5ccccc45)C(C(=O)OC)(C2)C13 (stereo unspecified)
- survivor count (dose: 200.0 mg/kg/injection, schedule: Q01DX005 (ip), vehicle: saline with Tween-80): 3 of 6

Structure (SMILES): COc1cc(C2c3cc4c(cc3[C@@H](OC3OC5CO[C@@H](c6cccs6)OC5C(O)C3O)[C@H]3COC(=O)C23)OCO4)cc(OC)c1OC (stereo partly specified)
- T/C (dose: 4.0 mg/kg/injection, schedule: Q01DX005 (ip), vehicle: saline): 140 % of control
- T/C (dose: 8.0 mg/kg/injection, schedule: Q01DX005 (ip), vehicle: saline): 148 % of control [5 of 6 alive]

Structure (SMILES): [CH2-]N(CC)CC.[CH2-]N(CC)CC.[Rh].[Rh].[Rh].[c-]1[c-][c-][cH-][c-]1.[c-]1[c-][c-][cH-][c-]1.[c-]1[c-][c-][cH-][c-]1
- T/C (dose: 50.0 mg/kg/injection, schedule: Q04DX002 (ip), vehicle: saline): 130 % of control
- T/C [5]: 97 [5 of 6 alive] and 136 % of control
- survivor count [5]: 3 of 6 and 6 of 6
- survivor count (dose: 200.0 mg/kg/injection, schedule: Q04DX002 (ip), vehicle: saline): 1 of 6 and 4 of 6
- survivor count (dose: 400.0 mg/kg/injection, schedule: Q04DX002 (ip), vehicle: saline): 0 of 6

Structure (SMILES): c1ccc2c(c1)nc1n2CC2(CS1)CSc1nc3ccccc3n1C2
- survivor count (dose: 200.0 mg/kg/injection, schedule: Q01DX009 (ip), vehicle: saline with Tween-80): 6 of 6

Structure (SMILES): Cc1ccc2nc(N3C(=O)CSC3=S)sc2c1
- survivor count [4]: 5 of 6

Structure (SMILES): C[Si](C)(CCl)N[Si](C)(C)CCl
- T/C (dose: 400.0 mg/kg/injection, schedule: Q01DX009 (ip), vehicle: suspension in saline): 126 % of control [5 of 6 alive]
- survivor count (dose: 600.0 mg/kg/injection, schedule: Q01DX009 (ip), vehicle: saline with Tween-80): 0 of 6

Structure (SMILES): O=[N+]([O-])c1c(N2CCN(CCO)CC2)nc2ccccn12
- survivor count [2]: 2 of 4
- survivor count [3]: 0 of 6
- survivor count [4]: 0 of 6

Structure (SMILES): Cc1cc(-c2ccc(N=Nc3ccc4c(S(=O)(=O)O)cc(S(=O)(=O)O)c(N)c4c3O)c(C)c2)ccc1N=Nc1ccc2c(S(=O)(=O)O)cc(S(=O)(=O)O)c(N)c2c1O
- survivor count (dose: 50.0 mg/kg/injection, schedule: Q01DX009 (ip), vehicle: saline): 6 of 6

Structure (SMILES): CCOC(=O)NNc1nc(-c2ccccc2)nc2nonc12
- survivor count [6]: 6 of 6

Structure (SMILES): Cn1c(N)c(C(=O)/C=C/c2ccccc2)c(=O)n(C)c1=O
- survivor count [4]: 6 of 6

Structure (SMILES): CSCCC(C(=O)O)N1C(=O)C=CC1=O (stereo unspecified)
- survivor count (dose: 90.0 mg/kg/injection, schedule: Q01DX009 (ip), vehicle: saline with Tween-80): 0 of 6
- survivor count (dose: 180.0 mg/kg/injection, schedule: Q01DX009 (ip), vehicle: saline with Tween-80): 0 of 6

Structure (SMILES): CCCC(=O)Nc1cc2c3c(c1)CCCN3CCC2
- survivor count [6]: 3 of 6

Structure (SMILES): N#CC1=C(Nc2ccccc2)CCC1
- survivor count [7]: 0 of 5

Structure (SMILES): COc1ccccc1C(=O)C(CN(C)C)CN(C)C
- survivor count (dose: 15.0 mg/kg/injection, schedule: Q01DX005 (ip), vehicle: saline): 5 of 6
- survivor count (dose: 30.0 mg/kg/injection, schedule: Q01DX005 (ip), vehicle: saline): 0 of 6
- survivor count (dose: 60.0 mg/kg/injection, schedule: Q01DX005 (ip), vehicle: saline): 0 of 6
- survivor count (dose: 120.0 mg/kg/injection, schedule: Q01DX005 (ip), vehicle: saline): 0 of 6
- survivor count (dose: 240.0 mg/kg/injection, schedule: Q01DX005 (ip), vehicle: saline): 0 of 6

Structure (SMILES): N#CC(=O)Nc1ccc(Cl)c(Cl)c1
- survivor count (dose: 60.0 mg/kg/injection, schedule: Q01DX005 (ip), vehicle: Klucel (hydroxypropylcellulose) (HPC)): 0 of 6
- survivor count (dose: 120.0 mg/kg/injection, schedule: Q01DX005 (ip), vehicle: Klucel (hydroxypropylcellulose) (HPC)): 0 of 6
- survivor count (dose: 240.0 mg/kg/injection, schedule: Q01DX005 (ip), vehicle: Klucel (hydroxypropylcellulose) (HPC)): 0 of 6

Structure (SMILES): O=C1[O][Sn]2([Cl])[NH]C1C[S]2 (stereo unspecified)
- survivor count [7]: 0 of 6
